Experimental findings from patent US12410220B2 (priority 2021, dated 2025) are described below.

The series in a line: peptide synthesis. To be noted: % yield by MS; for conjugation yield: conjugation step; for step yield: lipidation step.

Take (vlp)-KKGFYKKKQCRPSKGRKRGFCW: the conjugation yield turned out to be 84.9%. The same measure, in the same setting: the figure for “(rg108)-KKGFYKKKQCRPSKGRKRGFCW (N-terminal RG108)” is 74.3%@. With (lau)-KKGFYKKKQCRPSKGRKRGFCW, the step yield worked out at 96.7%. Regarding (h4p)-KKGFYKKKQCRPSKGRKRGFCW, the conjugation yield came to 85.1%. The substance (dec)-KKGFYKKKQCRPSKGRKRGFCW had a step yield of 98.0%.
